Data source: PubChem BioAssay AID1508588 (Peter MacCallum Cancer Centre, 2020)

Test: 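Which gene losses make BRAF-mutant melanoma cells more responsive to vemurafenib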 (primary screen)
Cell system: human WM266.4 melanoma cells (BRAF V600 mutant)
Knock-down reagent: siRNA pool against human genes, 40 nM
Duration: 96 h from transfection to read-out
Treatment: vemurafenib 300 nM (about IC25), added 48 h after transfection, for 48 h; comparison arm got DMSO vehicle only
Detection: 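Ratios to non-targeting siRNA for cell gain, counted as DAPI nuclei after minus before drug and averaged over two replicates, and for absorbance-read medium lactate per cell; both binned into fold-change classes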
Scale: cell gain with vemurafenib: higher = more cell gain than with non-targeting siRNA; lactate per cell with vemurafenib: higher = more lactate made per cell
Rule for the call: 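Enhancement is called by pairing each knock-down's vehicle-arm and drug-arm fold-change classes for viability or glycolysis; which class combinations qualify is not given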
Calls: active = enhances vemurafenib effect; inactive = no enhancement seen
In all, the deposit lists about 18,000 reagents; below is an unselected part. Of all reagents, 790 (4.4%) were called active. 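Calls rest on a combination of fold-change classes in drug and vehicle arms, not all shown here.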 A number with no mark means an inactive call.

| Gene | cell gain with vemurafenib | lactate per cell with vemurafenib |
| --- | --- | --- |
| GLP2R (glucagon like peptide 2 receptor) | 0.71 | 1.62 |
| IL7 (interleukin 7) | 0.56 | 0.86 |
| TMEM52B (transmembrane protein 52B) | 0.56 | 1.22 |
| HNRNPUL1 (heterogeneous nuclear ribonucleoprotein U like 1) | 0.49 | 1.01 |
| APOB (apolipoprotein B) | 0.13 | 1.8 |
| BPNT2 (3'(2'), 5'-bisphosphate nucleotidase 2) | 0.56 | 0.44 |
| IPO4 (importin 4) | 0.51 | 1.53 |
| CYFIP1 (cytoplasmic FMR1 interacting protein 1) | 1.01 | 0.53 |
| GPR149 (G protein-coupled receptor 149) | 1.15 | 0.9 |
| IKBKB (inhibitor of nuclear factor kappa B kinase subunit beta) | 0.37 | 1.28 |
| TMEM164 (transmembrane protein 164) | 0.36 | 0.81 |
| SAFB (scaffold attachment factor B) | 0.44 | 0.93 |
| SLFN11 (schlafen family member 11) | 0.76 | 0.64 |
| MTMR4 (myotubularin related protein 4) | 0.5 | 1.02 |

Records above whose gene name begins with G or g:
| Gene | cell gain with vemurafenib | lactate per cell with vemurafenib |
| --- | --- | --- |
| GLP2R (glucagon like peptide 2 receptor) | 0.71 | 1.62 |
| GPR149 (G protein-coupled receptor 149) | 1.15 | 0.9 |

More records follow:
| Gene | cell gain with vemurafenib | lactate per cell with vemurafenib |
| --- | --- | --- |
| GMCL1 (germ cell-less 1, spermatogenesis associated) | 0.22 | 2.4 |
| HOXC4 (homeobox C4) | 0.72 | 0.76 |
| PCDH17 (protocadherin 17) | 0.92 | 0.62 |
| FAM181A (family with sequence similarity 181 member A) | 0.06 | 1.25 |
| SLC16A9 | 0.19 | 1 |
| ZNF362 (zinc finger protein 362) | 1.2 | 0.92 |
| SLC39A14 | 0.61 | 0.95 |
| ATF6B (activating transcription factor 6 beta) | 0.09 | 1.89 |
| C6 (complement C6) | 0.96 | 1.48 |
| ZNF22-AS1 (ZNF22 antisense RNA 1) | 0.66 | 0.69 |
| CDC42EP2 (CDC42 effector protein 2) | 0.7 | 0.6 |
| H2AC16 (H2A clustered histone 16) | 0.07 | 2.23 |
| FAM168A (family with sequence similarity 168 member A) | 0.16 | 1.27 |
| FEM1B (fem-1 homolog B) | 0.93 | 0.92 |
| BMPR1B (bone morphogenetic protein receptor type 1B) | 0.86 | 0.84 |
| SPATA31D1 (SPATA31 subfamily D member 1) | 0.56 | 1.84 |
| PAQR3 (progestin and adipoQ receptor family member 3) | 0.71 | 0.68 |
| QTGAL (queuosine-tRNA galactosyltransferase) | 0.71 | 0.97 |
| CLEC4F (C-type lectin domain family 4 member F) | 0.25 | 1.35 |
| HRH2 (histamine receptor H2) | -0.08 | 3.79 |
